At least one read-out could not be matched to a standard name with certainty.
Assay: Modulus recovery of HELP hydrogel submerged in fresh PBS (competitor diffusion)
Type: physicochemical
Details: 10 mM competitor

Compound: NNCC(=O)O [Hydrazinoacetic acid, hydrazinoacetic acid]
- modulus recovery (48 hrs): fully recovers
- modulus recovery over 48 hours (FIG. 13B, n=3): rapid recovery
